One test addresses T1, FLAG-OTUB2 (UniProt Q9CQX0).
T1 sequence: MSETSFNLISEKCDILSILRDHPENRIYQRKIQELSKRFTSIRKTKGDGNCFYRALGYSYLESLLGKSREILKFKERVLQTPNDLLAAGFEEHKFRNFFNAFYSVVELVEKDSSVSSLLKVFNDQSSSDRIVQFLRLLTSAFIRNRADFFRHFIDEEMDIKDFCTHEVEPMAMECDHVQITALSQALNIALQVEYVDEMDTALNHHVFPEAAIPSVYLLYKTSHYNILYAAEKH
Put plainly: co-IP; FLAG-OTUB2 and GFP-RIPK3 plasmids co-transfected into NIH/3T3 cells for 24 h; immunoprecipitation from whole-cell lysates with anti-GFP (Fig. 4G) or anti-FLAG (Fig. 4H) antibodies, Protein A + G magnetic beads, washed 5 times with ice-cold PBS, Western blot.

The chains behind the UniProt entries cited, without tags or fusion partners.
UniProt Q9QZL0: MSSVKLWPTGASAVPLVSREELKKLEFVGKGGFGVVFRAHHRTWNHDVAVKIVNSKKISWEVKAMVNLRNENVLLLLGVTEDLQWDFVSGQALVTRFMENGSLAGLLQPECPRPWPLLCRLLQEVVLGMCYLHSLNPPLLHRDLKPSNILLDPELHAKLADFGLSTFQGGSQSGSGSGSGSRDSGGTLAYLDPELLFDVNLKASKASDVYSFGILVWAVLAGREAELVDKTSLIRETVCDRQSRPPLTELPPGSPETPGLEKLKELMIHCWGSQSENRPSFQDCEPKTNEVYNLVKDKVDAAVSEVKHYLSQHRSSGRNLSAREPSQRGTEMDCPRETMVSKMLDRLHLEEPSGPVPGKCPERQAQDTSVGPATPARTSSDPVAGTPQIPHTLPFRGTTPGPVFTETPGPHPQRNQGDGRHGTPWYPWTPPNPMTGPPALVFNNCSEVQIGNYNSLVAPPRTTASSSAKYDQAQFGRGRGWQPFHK

Test [1] addresses receptor-interacting protein kinase 3 (RIPK3), endogenous (mouse (endogenous in HT22)) (UniProt Q9QZL0). Put plainly: co-IP; endogenous proteins; immunocomplexes harvested from HT22 whole-cell lysates with antibody overnight at 4 °C and Protein A + G magnetic beads, washed 5 times with ice-cold PBS, Western blot.
For another test, the target named is GFP-RIPK3 (UniProt Q9QZL0). Put plainly: co-IP; FLAG-OTUB2 and GFP-RIPK3 plasmids co-transfected into NIH/3T3 cells for 24 h; immunoprecipitation from whole-cell lysates with anti-GFP (Fig. 4G) or anti-FLAG (Fig. 4H) antibodies, Protein A + G magnetic beads, washed 5 times with ice-cold PBS, Western blot.

No constants are given. Whether binding was seen depends on the method and setting. Binding seen in cells or lysates may run through a third protein. Some binding calls cover weakened binding; strength is not graded here. For part of these data: Tags and fused reporters may be left off the sequences shown.

Regarding “GFP-RIPK3 (from UniProt Q9QZL0 1-486) (enzyme)”, the binding result with FLAG-OTUB2 is reported as “binds”.

B1: Otubain-2 (OTUB2), endogenous (enzyme, UniProt Q9CQX0 1-234)
chain: MSETSFNLISEKCDILSILRDHPENRIYQRKIQELSKRFTSIRKTKGDGNCFYRALGYSYLESLLGKSREILKFKERVLQTPNDLLAAGFEEHKFRNFFNAFYSVVELVEKDSSVSSLLKVFNDQSSSDRIVQFLRLLTSAFIRNRADFFRHFIDEEMDIKDFCTHEVEPMAMECDHVQITALSQALNIALQVEYVDEMDTALNHHVFPEAAIPSVYLLYKTSHYNILYAAEKH
Turning to B1, the binding entry in test [1] is “binds”.

B2: FLAG-OTUB2 (enzyme, UniProt Q9CQX0 1-234)
chain: MSETSFNLISEKCDILSILRDHPENRIYQRKIQELSKRFTSIRKTKGDGNCFYRALGYSYLESLLGKSREILKFKERVLQTPNDLLAAGFEEHKFRNFFNAFYSVVELVEKDSSVSSLLKVFNDQSSSDRIVQFLRLLTSAFIRNRADFFRHFIDEEMDIKDFCTHEVEPMAMECDHVQITALSQALNIALQVEYVDEMDTALNHHVFPEAAIPSVYLLYKTSHYNILYAAEKH
Regarding B2, in the test with GFP-RIPK3, the binding entry was “binds”.

Values taken from PMC11982199.
